Test results taken from patent US20240319212A1, “METHOD OF MEASURING THE ENDOCYTIC VITAMIN D STATUS” (Immundiagnostik AG, priority 2018, published 2024).
Results are given in words; binding and its absence hold for the method and conditions named. Some results given as binding are weak or reduced against the parent protein; the word gives no strength.

The chains behind the UniProt entries cited, without tags or fusion partners. Where a name states a change or a piece, a line headed by the entry shows the natural chain unless it says otherwise.
UniProt P98164: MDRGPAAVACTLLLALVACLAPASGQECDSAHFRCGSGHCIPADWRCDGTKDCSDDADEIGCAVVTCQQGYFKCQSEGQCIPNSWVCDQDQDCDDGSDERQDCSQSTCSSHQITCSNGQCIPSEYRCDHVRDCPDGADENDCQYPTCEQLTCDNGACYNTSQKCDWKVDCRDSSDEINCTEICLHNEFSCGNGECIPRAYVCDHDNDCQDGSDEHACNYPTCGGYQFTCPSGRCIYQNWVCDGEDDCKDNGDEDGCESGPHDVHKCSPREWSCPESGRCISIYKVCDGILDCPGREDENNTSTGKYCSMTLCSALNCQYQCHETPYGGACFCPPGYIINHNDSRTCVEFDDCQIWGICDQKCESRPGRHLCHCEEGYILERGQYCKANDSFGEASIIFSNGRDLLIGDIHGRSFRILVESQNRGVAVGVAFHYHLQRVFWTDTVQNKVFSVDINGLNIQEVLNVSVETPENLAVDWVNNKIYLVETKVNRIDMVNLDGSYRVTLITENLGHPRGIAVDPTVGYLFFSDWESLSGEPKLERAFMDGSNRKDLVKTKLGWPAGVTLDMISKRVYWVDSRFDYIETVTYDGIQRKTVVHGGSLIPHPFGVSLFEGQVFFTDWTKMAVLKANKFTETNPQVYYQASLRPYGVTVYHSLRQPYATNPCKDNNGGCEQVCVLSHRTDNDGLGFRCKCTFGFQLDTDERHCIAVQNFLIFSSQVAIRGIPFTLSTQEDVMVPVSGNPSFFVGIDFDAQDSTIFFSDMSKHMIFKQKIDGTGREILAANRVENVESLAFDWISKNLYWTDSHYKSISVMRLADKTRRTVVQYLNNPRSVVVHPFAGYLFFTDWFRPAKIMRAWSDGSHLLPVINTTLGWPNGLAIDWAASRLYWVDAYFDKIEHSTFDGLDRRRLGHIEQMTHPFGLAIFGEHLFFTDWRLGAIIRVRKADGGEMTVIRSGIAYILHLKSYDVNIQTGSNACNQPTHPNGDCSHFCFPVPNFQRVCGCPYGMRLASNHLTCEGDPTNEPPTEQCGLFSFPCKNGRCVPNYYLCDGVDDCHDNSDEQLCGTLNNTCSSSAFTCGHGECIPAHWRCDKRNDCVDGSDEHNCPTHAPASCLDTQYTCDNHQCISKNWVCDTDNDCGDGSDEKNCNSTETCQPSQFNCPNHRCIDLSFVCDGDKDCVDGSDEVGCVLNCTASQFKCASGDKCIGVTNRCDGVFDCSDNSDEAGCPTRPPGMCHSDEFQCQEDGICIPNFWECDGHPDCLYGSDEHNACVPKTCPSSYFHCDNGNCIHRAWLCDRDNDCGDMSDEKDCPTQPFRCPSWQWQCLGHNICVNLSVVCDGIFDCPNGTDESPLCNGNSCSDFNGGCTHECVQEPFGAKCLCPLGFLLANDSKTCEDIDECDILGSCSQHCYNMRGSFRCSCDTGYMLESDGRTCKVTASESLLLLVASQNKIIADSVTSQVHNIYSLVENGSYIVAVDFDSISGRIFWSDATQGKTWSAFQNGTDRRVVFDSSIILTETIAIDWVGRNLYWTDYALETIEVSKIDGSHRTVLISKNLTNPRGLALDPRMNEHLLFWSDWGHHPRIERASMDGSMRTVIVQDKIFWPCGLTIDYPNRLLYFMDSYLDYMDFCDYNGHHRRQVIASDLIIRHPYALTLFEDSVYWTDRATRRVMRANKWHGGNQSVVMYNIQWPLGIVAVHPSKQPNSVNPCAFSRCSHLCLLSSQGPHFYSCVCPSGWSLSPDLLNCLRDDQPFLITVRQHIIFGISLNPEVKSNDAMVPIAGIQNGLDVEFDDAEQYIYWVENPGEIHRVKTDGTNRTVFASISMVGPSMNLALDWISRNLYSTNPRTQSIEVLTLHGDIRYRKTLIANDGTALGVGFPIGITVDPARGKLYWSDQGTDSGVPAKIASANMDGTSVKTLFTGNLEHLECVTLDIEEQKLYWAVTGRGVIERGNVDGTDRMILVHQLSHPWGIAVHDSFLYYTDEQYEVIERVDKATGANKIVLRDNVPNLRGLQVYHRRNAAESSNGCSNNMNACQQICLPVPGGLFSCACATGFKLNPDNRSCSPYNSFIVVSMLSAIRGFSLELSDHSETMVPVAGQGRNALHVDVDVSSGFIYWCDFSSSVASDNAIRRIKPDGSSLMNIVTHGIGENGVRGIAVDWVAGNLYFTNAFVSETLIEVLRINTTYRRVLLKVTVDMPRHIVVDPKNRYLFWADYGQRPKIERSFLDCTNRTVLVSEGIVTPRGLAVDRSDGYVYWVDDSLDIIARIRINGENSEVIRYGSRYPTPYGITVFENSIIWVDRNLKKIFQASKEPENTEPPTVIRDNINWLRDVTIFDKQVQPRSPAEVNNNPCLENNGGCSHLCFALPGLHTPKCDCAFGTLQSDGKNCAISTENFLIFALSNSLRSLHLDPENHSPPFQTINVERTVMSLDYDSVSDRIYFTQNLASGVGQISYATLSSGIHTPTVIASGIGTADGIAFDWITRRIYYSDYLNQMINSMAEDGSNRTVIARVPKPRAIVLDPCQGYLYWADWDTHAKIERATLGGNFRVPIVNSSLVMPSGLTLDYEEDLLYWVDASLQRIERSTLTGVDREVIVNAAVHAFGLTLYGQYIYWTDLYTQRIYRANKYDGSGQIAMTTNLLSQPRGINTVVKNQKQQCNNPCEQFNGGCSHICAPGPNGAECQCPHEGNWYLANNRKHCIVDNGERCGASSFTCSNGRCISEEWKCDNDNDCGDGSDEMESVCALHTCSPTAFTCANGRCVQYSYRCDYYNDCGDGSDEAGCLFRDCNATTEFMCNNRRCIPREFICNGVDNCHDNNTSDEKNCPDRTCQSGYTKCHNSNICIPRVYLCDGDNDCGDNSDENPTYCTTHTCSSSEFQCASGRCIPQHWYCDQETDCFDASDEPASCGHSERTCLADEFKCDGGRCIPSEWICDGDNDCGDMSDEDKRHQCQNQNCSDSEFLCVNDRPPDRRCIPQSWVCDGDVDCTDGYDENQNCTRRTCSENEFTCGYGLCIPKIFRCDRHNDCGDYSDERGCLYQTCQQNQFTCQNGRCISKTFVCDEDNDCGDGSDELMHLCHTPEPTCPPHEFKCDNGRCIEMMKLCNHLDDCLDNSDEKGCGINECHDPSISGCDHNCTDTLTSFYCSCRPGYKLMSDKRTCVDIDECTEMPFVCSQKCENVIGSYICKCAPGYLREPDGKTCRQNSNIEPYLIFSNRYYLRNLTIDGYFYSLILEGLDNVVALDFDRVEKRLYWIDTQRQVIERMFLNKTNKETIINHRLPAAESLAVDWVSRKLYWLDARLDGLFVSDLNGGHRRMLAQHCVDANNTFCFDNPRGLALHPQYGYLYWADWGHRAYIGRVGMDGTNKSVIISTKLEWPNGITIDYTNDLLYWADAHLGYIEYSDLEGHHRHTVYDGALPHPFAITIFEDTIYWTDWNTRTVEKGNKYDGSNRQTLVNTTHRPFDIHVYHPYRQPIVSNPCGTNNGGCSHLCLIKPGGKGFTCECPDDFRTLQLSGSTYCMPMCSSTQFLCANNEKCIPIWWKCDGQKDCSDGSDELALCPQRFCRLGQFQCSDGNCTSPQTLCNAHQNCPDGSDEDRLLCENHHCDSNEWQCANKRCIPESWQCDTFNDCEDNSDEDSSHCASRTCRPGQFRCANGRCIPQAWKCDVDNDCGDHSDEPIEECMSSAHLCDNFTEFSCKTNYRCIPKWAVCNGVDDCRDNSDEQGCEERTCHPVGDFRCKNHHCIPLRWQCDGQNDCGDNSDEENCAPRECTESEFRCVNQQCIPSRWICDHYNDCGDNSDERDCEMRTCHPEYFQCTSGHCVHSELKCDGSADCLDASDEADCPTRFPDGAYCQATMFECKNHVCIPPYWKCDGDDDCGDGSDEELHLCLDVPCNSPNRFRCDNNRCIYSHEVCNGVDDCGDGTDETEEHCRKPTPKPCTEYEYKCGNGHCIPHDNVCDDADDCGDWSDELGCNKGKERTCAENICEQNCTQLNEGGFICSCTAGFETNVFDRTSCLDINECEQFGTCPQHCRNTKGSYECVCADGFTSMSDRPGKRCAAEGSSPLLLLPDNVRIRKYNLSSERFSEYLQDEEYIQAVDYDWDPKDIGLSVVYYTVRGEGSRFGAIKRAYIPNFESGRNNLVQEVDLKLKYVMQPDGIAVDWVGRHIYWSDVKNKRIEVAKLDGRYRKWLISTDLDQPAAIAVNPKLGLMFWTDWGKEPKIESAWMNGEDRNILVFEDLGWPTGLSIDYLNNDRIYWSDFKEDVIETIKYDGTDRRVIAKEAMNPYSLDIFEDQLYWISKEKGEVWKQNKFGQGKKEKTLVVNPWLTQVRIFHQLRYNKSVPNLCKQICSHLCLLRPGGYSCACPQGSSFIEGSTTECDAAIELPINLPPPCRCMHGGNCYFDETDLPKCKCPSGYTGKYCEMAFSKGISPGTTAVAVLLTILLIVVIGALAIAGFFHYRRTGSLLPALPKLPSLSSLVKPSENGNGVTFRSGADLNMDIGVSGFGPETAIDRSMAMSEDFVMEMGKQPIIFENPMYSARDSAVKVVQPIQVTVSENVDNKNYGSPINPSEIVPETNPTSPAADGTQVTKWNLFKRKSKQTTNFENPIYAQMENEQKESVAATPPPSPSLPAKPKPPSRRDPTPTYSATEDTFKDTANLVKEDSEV

Molecular target: soluble recombinant megalin M2 fragment (amino acids 1024-1429 of human LRP2/megalin, C-terminal 6x His tag) (human) (UniProt P98164)
Assay: peptide array of megalin M2 region; major binding epitopes of megalin ligands

- binding: binds
B1: Human PTH (ligand, UniProt P01270 32-115, looked up)
chain: SVSEIQLMHNLGKHLNSMERVEWLRKKLQDVHNFVALGAPLAPRDAGSQRPRKKEDNVLVESHEKSLGEADKADVNVLTKAKSQ
